PubChem BioAssay AID743454, Peter MacCallum Cancer Centre – 2014

- Screen: 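Genes whose loss kills vorinostat-resistant colon cancer cells under vorinostat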 (primary screen)
- Cells: human HCT116-VR colon cancer cells, selected for vorinostat resistance
- Knock-down reagent: siRNA pool against human genes, 40 nM siRNA pool
- Timing: vorinostat for 24 h, read-out about 72 h after transfection
- Treatment: vorinostat at 2.5 µM final
- Measured: 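Two measures, CellTiter-Fluor viability and luminescent caspase 3/7 activity, each as fold change against same-plate mock wells, mean of duplicates, then screen-wide robust z-score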
- Scale: viability robust z-score: higher = more viable cells than screen typical; caspase robust z-score: higher = more caspase 3/7 activity than screen typical
- Hit rule: 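Hits are knock-downs in viability class RV1/RV2 or caspase class CA1/CA2, excluding ones that killed cells in the no-drug cell-count arm; hits then retested with single siRNAs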
The deposit covers about 18,000 reagents; below is a random part of them. 450 of them (2.5%) were called active. 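Single biological run; no consistent viability z cut-off exists, so the class columns, not z-scores, define the calls.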

target | viability hit class | caspase hit class | viability robust z-score | caspase robust z-score | Call
LMOD1 (leiomodin 1) | no change | no change | -0.06 | -0.64 | inactive
SPATA33 (spermatogenesis associated 33) | no change | no change | -1.36 | 1.64 | inactive
GTF3C6 (general transcription factor IIIC subunit 6) | no change | no change | 0.64 | -0.03 | inactive
SLC25A19 | no change | no change | 1.41 | 0.58 | inactive
RASGRP2 (RAS guanyl releasing protein 2) | no change | CA1 (caspase activation) | -2.59 | 7.46 | active
RAB3GAP1 (RAB3 GTPase activating protein catalytic subunit 1) | no change | no change | 0.1 | -0.68 | inactive
GOSR1 (golgi SNAP receptor complex member 1) | no change | no change | 0.01 | -0.35 | inactive
SPAG6 (sperm associated antigen 6) | no change | no change | -1.47 | 1.75 | inactive
BMP7 (bone morphogenetic protein 7) | no change | no change | -1.19 | 0.22 | inactive
EIPR1 (EARP complex and GARP complex interacting protein 1) | no change | no change | 0.85 | -0.63 | inactive
SLC30A3 | no change | no change | 0.54 | 1.19 | inactive
UCP3 (uncoupling protein 3) | no change | no change | 1.37 | 1.17 | inactive
ARPC3 (actin related protein 2/3 complex subunit 3) | no change | no change | 0.05 | -0.4 | inactive
TAAR9 (trace amine associated receptor 9) | no change | no change | -1.04 | 0.16 | inactive
SNX12 (sorting nexin 12) | no change | no change | -0.23 | 0.96 | inactive
COMMD1 (copper metabolism domain containing 1) | no change | no change | 0.19 | -0.02 | inactive
XRN2 (5'-3' exoribonuclease 2) | no change | no change | 0 | -0.76 | inactive
IL2RG (interleukin 2 receptor subunit gamma) | no change | no change | -0.08 | -0.4 | inactive
PTGFR (prostaglandin F receptor) | no change | no change | -0.91 | 0.94 | inactive
TRIM27 (tripartite motif containing 27) | no change | no change | 0.68 | -0.4 | inactive
SMCO1 (single-pass membrane protein with coiled-coil domains 1) | no change | no change | 0.38 | -0.76 | inactive
SLC17A7 | no change | no change | -0.24 | 1.08 | inactive
SDHB (succinate dehydrogenase complex iron sulfur subunit B) | no change | no change | 0.84 | -0.12 | inactive

Entries above whose gene name begins with R or r (2):
target | viability hit class | caspase hit class | viability robust z-score | caspase robust z-score | Call
RASGRP2 (RAS guanyl releasing protein 2) | no change | CA1 (caspase activation) | -2.59 | 7.46 | active
RAB3GAP1 (RAB3 GTPase activating protein catalytic subunit 1) | no change | no change | 0.1 | -0.68 | inactive

Continued.
target | viability hit class | caspase hit class | viability robust z-score | caspase robust z-score | Call
PLEKHG1 (pleckstrin homology and RhoGEF domain containing G1) | no change | no change | -0.38 | 1.26 | inactive
CXCL10 (C-X-C motif chemokine ligand 10) | no change | no change | 1.21 | -0.52 | inactive
LRRC36 (leucine rich repeat containing 36) | no change | no change | -1.36 | -1.56 | inactive
NTHL1 (nth like DNA glycosylase 1) | no change | no change | 0.1 | 0.94 | inactive
PTEN (phosphatase and tensin homolog) | no change | no change | 0.39 | 0.93 | inactive
THAP9 (THAP domain containing 9) | no change | no change | -0.92 | -1.01 | inactive
WDSUB1 (WD repeat, sterile alpha motif and U-box domain containing 1) | no change | no change | 0.33 | -0.76 | inactive
PEG3 (paternally expressed 3) | no change | no change | 0.25 | -0.43 | inactive
LRRC25 (leucine rich repeat containing 25) | no change | no change | 0.48 | -0.68 | inactive
CDAN1 (codanin 1) | no change | no change | 1.9 | -0.21 | inactive
RB1CC1 (RB1 inducible coiled-coil 1) | no change | no change | -4.46 | 2.26 | inactive
HIF1A (hypoxia inducible factor 1 subunit alpha) | no change | no change | 0.62 | 0.76 | inactive
FBXL22 (F-box and leucine rich repeat protein 22) | no change | no change | -0.62 | -0.26 | inactive
ARID3A (AT-rich interaction domain 3A) | no change | no change | 0.04 | 0.78 | inactive
RUMY4 (RUMY family member 4) | no change | no change | 0.01 | -0.77 | inactive
SLC1A3 | no change | no change | -2.62 | 0.82 | inactive
